PMC11218507

Amino acid sequences for entries named in this document (tags omitted).
UniProt Q9SP32: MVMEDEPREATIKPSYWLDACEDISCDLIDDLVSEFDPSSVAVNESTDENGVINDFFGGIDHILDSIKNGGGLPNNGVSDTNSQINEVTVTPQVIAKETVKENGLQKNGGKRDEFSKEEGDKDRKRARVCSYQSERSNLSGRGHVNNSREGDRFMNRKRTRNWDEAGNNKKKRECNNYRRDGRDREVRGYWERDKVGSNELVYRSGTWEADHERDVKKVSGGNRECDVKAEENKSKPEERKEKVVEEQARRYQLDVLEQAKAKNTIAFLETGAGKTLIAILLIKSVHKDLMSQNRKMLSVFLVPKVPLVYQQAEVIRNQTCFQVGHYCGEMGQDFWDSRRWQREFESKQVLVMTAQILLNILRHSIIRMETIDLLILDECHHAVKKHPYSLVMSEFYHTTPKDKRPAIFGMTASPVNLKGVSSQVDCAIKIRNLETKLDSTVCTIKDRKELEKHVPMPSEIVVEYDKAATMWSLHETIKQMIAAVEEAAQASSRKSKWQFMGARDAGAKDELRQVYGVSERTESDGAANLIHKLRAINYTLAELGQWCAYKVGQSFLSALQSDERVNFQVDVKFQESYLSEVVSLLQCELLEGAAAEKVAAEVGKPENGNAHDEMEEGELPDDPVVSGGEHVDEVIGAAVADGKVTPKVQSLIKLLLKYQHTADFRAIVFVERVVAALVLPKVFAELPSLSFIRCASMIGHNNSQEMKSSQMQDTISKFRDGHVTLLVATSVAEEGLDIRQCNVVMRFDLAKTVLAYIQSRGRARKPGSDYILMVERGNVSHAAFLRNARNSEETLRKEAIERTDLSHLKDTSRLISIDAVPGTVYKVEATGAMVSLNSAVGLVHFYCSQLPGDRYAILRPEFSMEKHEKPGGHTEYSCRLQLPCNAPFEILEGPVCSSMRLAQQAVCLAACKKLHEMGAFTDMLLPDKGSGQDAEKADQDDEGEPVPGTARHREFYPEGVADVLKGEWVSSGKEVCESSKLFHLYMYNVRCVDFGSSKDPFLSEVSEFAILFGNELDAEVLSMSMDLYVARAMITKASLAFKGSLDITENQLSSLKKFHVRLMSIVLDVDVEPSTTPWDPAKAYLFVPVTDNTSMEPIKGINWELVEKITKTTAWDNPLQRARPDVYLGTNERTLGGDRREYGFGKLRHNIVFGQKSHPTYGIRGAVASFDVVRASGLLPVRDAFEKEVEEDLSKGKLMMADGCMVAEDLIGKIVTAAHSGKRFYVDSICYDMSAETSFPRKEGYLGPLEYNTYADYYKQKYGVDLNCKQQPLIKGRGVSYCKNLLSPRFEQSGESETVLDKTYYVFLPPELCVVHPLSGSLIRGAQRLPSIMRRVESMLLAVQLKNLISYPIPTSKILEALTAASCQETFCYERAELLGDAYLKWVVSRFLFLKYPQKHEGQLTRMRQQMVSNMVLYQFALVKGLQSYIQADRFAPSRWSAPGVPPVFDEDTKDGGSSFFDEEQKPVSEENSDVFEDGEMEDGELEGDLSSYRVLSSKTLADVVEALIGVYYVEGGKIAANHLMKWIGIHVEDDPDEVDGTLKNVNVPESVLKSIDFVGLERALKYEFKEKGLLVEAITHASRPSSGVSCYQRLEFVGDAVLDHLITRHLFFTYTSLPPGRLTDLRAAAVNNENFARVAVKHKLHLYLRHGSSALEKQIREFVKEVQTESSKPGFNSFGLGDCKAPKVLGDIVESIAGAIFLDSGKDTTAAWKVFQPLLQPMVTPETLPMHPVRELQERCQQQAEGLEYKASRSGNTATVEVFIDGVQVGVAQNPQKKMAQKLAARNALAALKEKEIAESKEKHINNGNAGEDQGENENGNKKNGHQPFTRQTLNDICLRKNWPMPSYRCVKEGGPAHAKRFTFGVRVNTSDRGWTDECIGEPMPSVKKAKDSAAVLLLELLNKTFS

What was measured:
Test in all cases: split reporter; BiFC with N- and C-terminal regions of mCitrine; coagroinfiltration of N. benthamiana leaves with Fibrillarin-mRFP and p19; confocal microscopy of epidermal cells 3-4 days post-agroinfiltration
[1] = target: T1, N-mCitrine:AtHYL1 (HYPONASTIC LEAVES 1, BiFC fusion) (A. thaliana) (UniProt O04492)
T1 sequence: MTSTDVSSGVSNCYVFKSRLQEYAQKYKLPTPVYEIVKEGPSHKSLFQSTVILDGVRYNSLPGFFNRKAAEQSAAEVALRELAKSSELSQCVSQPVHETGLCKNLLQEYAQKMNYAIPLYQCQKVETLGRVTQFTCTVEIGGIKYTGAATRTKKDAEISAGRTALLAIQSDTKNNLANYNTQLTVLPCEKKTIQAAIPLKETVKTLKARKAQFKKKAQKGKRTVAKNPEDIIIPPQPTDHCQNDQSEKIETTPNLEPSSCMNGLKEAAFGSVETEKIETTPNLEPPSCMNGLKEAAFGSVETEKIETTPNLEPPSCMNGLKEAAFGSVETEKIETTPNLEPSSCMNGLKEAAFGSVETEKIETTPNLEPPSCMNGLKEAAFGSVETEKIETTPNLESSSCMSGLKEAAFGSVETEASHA

[2] = target: T2, N-mCitrine:AtSE (SERRATE, BiFC fusion) (A. thaliana) (UniProt Q9ZVD0)
T2 sequence: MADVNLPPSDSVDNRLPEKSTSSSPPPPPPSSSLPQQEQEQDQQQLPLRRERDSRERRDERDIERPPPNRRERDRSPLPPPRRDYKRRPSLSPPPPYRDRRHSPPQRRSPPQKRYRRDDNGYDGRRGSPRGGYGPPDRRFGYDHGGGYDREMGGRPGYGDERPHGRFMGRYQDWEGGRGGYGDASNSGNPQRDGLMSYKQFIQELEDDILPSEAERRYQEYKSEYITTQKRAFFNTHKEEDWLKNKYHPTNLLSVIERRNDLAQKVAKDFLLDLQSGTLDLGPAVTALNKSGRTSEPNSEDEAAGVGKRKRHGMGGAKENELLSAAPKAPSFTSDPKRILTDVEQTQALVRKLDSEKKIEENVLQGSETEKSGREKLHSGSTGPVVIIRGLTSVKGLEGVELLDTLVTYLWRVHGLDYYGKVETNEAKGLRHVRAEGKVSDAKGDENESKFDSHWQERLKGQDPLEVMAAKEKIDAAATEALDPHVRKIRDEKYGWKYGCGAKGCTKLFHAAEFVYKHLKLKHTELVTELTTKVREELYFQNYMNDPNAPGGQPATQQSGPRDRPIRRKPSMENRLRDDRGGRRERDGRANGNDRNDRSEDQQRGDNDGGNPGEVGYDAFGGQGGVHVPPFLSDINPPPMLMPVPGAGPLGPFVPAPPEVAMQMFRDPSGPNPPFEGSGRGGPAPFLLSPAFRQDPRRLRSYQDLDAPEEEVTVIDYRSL

[3] = target: N-mCitrine:AtDCL1 (DICER-LIKE 1, BiFC fusion) (A. thaliana) (UniProt Q9SP32)

Substance | binding [1] | binding [2] | binding [3]
24KW15A (BiFC fusion) (citrus psorosis virus (CPsV)) | binds | binds | –
24KΔN (BiFC fusion) (from UniProt Q80H97) (domain or fragment) | binds | binds | no binding
24KΔNES (BiFC fusion) (citrus psorosis virus (CPsV)) | binds | binds | –
24KΔC (BiFC fusion) (citrus psorosis virus (CPsV)) (domain or fragment) | binds | binds | –

Results are given in words; binding and its absence hold for the method and conditions named. In cells and extracts the contact can be indirect. For part of these data: A result given as binding can be weak or reduced; the word gives no strength. For part of these data: Sequences can lack the tags named with a protein.
